Assay results reported in the supplement of paper PMC3334620.
In all, about 33,000 sequences were measured (“E-score (-0.5 to 0.5)”: median about -0.016, highest 2% from about 0.3 on). This is one part of the list.

Target: T1, Yer184c (UniProt P39961)
T1 sequence: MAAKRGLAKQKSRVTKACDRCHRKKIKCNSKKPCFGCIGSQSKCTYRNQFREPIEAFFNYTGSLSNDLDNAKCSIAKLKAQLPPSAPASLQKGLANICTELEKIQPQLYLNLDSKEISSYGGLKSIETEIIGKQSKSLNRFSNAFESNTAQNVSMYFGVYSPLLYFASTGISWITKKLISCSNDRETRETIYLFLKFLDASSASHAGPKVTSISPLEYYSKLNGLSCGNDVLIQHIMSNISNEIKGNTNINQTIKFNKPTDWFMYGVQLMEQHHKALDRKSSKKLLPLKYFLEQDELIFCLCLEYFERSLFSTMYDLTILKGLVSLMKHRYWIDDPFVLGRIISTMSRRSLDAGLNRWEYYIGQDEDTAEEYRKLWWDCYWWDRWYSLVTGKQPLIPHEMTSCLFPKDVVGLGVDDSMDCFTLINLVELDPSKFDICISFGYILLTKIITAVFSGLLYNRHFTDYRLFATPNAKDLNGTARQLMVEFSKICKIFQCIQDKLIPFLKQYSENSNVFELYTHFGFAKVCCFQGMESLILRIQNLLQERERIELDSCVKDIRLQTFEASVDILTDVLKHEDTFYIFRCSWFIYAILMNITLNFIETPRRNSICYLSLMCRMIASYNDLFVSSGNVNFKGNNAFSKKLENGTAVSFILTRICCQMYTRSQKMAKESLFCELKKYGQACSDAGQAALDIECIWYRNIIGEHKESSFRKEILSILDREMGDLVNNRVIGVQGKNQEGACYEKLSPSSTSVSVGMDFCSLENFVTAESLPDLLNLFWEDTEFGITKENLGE
Assay: PBM E-score (8-mer binding enrichment) (E-score (-0.5 to 0.5)); higher = stronger / more preferred TF binding
Settings: protein concentration: 100 nM; construct: GST-full length
Summary of the method: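 For each ungapped eight-base word taken together with its reverse complement, the Universal PBM Analysis Suite assigned an E-score. Binding data came from GST-tagged yeast transcription factors, applied at about 100-200 nM, on universal all-10-mer Agilent arrays made double-stranded by primer extension. Fluorescent anti-GST marked bound protein, and scans were normalised with masliner.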

| Sequence | PBM E-score |
| --- | --- |
| ACCCCTAT | -0.315 |
| GTCAACGA | -0.0301 |
| CGACCTGC | -0.0821 |
| CAGTGTGA | 0.0148 |
| CGATGTGC | -0.101 |
| TAACGCCA | -0.14 |
| TGATTACA | 0.16 |
| AGCTACTG | 0.0911 |
| ATGCCTAG | -0.0563 |
| CAACCTCC | -0.262 |
| CAAAACAC | 0.102 |
| TAACTACA | 0.125 |
| CACCCTCC | -0.122 |
| CGATCCGA | 0.305 |
| CTGCGCAA | -0.0246 |
| CTGTATGA | 0.111 |
| ACGTAGAG | -0.221 |
| AACGAGCT | -0.0817 |
| AAACCTTC | -0.104 |
| ATGAACTG | 0.205 |
| AGTGGAAG | -0.141 |
| CCCGACTC | -0.0899 |
| CCTCAGCG | 0.0964 |
| GATTGTTA | 0.105 |
| CCAGTAGC | 0.0295 |

| Sequence | PBM E-score |
| --- | --- |
| ACTCCCAC | -0.135 |
| GATGGCCA | -0.0978 |
| GTGCGTTA | 0.128 |
| TGATACAA | 0.118 |
| ACCATTCT | -0.124 |
| CACCCTGA | -0.246 |
| GACAGGAA | 0.21 |
| AGTGAGAA | 0.118 |
| GCTCGCTA | -0.121 |
| AGTACCAT | -0.115 |
| ATAGGAGG | -0.285 |
| TGGAATAA | 0.0331 |
| CAGACATG | -0.172 |
| AGCTACCC | -0.139 |
| ATTATGCC | 0.16 |
| CGACCGTC | -0.0698 |
| ACAACCGA | 0.261 |
| AGCGCGCG | 0.0708 |
| AATTCACT | 0.133 |
| ACAGTCCT | -0.188 |
| AAACCTCG | 0.0132 |
| ATCCTCAC | -0.00718 |
| ATTGAAGA | -0.0543 |
| TCGCACCA | -0.00893 |
| CGCACGGA | 0.225 |

| Sequence | PBM E-score |
| --- | --- |
| GAGATTAC | -0.0877 |
| CGGTCGCC | 0.151 |
| CTACACCC | -0.268 |
| GCGGCCAC | -0.14 |
| CGGTATCC | 0.109 |
| TTACCCAA | -0.203 |
| ACCACACT | -0.0486 |
| CTGAGGGC | -0.336 |
| ATAAATAT | 0.202 |
| TAGCTTGA | -0.0505 |
| CCCTCGCG | -0.0354 |
| TAGTGCGA | -0.0299 |
| GACGAAGA | 0.0167 |
| ATAATTGA | 0.104 |
| CGTGTAAC | -0.0498 |
| ATCCCTCC | -0.0857 |
| GACTTAGC | -0.214 |
| ACTTGTAG | -0.0776 |
| ACCTCGGC | 0.238 |
| ACAGTGCC | 0.102 |
| TCCTCGAA | 0.0309 |
| GAAAATTC | 0.168 |
| ATCCGCAC | 0.158 |
| GGATACAC | -0.0694 |
| CACAATCA | 0.00768 |

| Sequence | PBM E-score |
| --- | --- |
| CCATAAAG | 0.053 |
| AGACGCAT | -0.0112 |
| ATCTTGCC | 0.0494 |
| GAACCGCC | -0.0289 |
| TCCCCGGA | 0.224 |
| CTAGTTTC | -0.0582 |
| CGTTCGCC | -0.0277 |
| CAGGGGAA | -0.196 |
| CGTAAGGC | -0.259 |
| CTGATAAC | 0.119 |
| ATCTAAAA | 0.0903 |
| AATTTTTC | 0.155 |
| CGCACTCC | -0.173 |
| ACCCGAAT | 0.104 |
| ACTGACTG | -0.23 |
| TAATACTA | 0.275 |
| AACGGACA | 0.202 |
| CCTAATGC | -0.233 |
| AGGCGTAC | 0.00758 |
| ACGGAGCC | 0.0323 |
| ATAATGAG | -0.0643 |
| CACACCTG | -0.271 |
| GCCTACCA | -0.123 |
| AGGCACGG | 0.0207 |
| CTCAGTTC | -0.0629 |

4 entries drawn at random from those above, as already listed:

| Sequence | PBM E-score |
| --- | --- |
| ACGGAGCC | 0.0323 |
| ACTGACTG | -0.23 |
| AGACGCAT | -0.0112 |
| ACCCGAAT | 0.104 |

Taken from above:
PBM E-score, AGGCACGG reads 0.0207
PBM E-score, CCTAATGC reads -0.233
PBM E-score, AATTTTTC reads 0.155
PBM E-score, ACGGAGCC reads 0.0323

Next entries follow:

| Sequence | PBM E-score |
| --- | --- |
| GCATAGTA | 0.0529 |
| AAGACGTG | 0.0213 |
| AGATTGAT | -0.071 |
| GCCGTCTA | -0.066 |
| CATGTTGA | 0.192 |
| CCATGCTA | -0.152 |
| ATCTGTCG | 0.119 |
| ATCCCTTA | -0.0553 |
| TCTTCAAA | 0.11 |
| GTAACAAC | 0.0579 |
| AAGTCTTA | -0.158 |
| GCTAACAA | 0.0634 |
| GGCGTGCA | -0.0643 |
| GTGCATGA | -0.0788 |
| CTCATCGC | -0.0826 |
| CGTCGATC | 0.142 |
| ACCATAGA | 0.0649 |
| TACACACA | 0.11 |
| CTAACAAA | 0.104 |
| AACCAGTA | 0.163 |
| AAACTGAT | -0.0499 |
| TACCCTAA | -0.085 |
| GTGCAACA | -0.105 |
| AGGTTTAT | 0.163 |
| GTGTGATA | 0.142 |

| Sequence | PBM E-score |
| --- | --- |
| CGATGTTA | 0.113 |
| CCTGTGCG | -0.0953 |
| CAACTTAA | 0.132 |
| AGTAGAAA | 0.196 |
| CACTTACC | 0.0218 |
| TGCCATAA | -0.106 |
| CGGGGAAA | 0.15 |
| GAAGTAAC | 0.0995 |
| GACGTTAC | -0.0321 |
| GTCTGGAA | -0.179 |
| AAGGAGCG | -0.206 |
| AGGGTACC | -0.315 |
| GCGACATA | 0.0501 |
| AATTCACC | 0.144 |
| GATATCCC | 0.0854 |
| AAGATGGC | -0.0885 |
| ATGATCGA | 0.031 |
| CAATGTGC | 0.0974 |
| GATATGCA | 0.0861 |
| ACGGATCC | 0.288 |
| TGGCCAAA | -0.176 |
| ACCACCTC | -0.00721 |
| GGAGGGTA | -0.141 |
| CCCTACAA | -0.0677 |
| CGCCAGTA | -0.187 |

| Sequence | PBM E-score |
| --- | --- |
| GATCGTAC | -0.108 |
| AAGGTCCG | 0.111 |
| CAGTTTCC | 0.133 |
| GATTCGCC | 0.0327 |
| ACATCTCT | -0.143 |
| AACATTTG | -0.0185 |
| CTAGCTTC | 0.156 |
| AGTCGTCA | -0.257 |
| GGCAAAAA | 0.214 |
| AAAACGCG | 0.138 |
| CCAATCTA | -0.11 |
| AATCCCGC | 0.115 |
| AGTAAGTC | -0.215 |
| GCCTGACA | -0.156 |
| CTATCTAC | 0.00721 |
| TACCAACA | -0.0192 |
| TCTGTGCA | 0.0157 |
| TGGAGAAA | -0.0333 |
| CGGCATCC | 0.253 |
| AAGCAGGT | -0.127 |
| ACCGGAGC | 0.247 |
| CGAATACG | 0.127 |
